This note sets out measurements from US8409550B2, “Method for treating skin with retinoids and retinoid boosters” (Unilever Home & Personal Care, USA, Division of Conopco, …, priority 2000, dated 2013).

For this data set, the system named is cytochrome P450 dependent retinoic acid oxidation. The data set is described as follows: Assay for NADPH dependent retinoic acid oxidation, rat liver microsomes (to identify B5). To be noted: compound 100 μM. Background: Microsomes from liver hold many membrane-bound enzymes, among them those of drug oxidation.

On to `Clc1ccccc1C(c1ccccc1)(c1ccccc1)n1ccnc1` [Clotrimazole], for which the “% Inhibition Retinoic Acid (100 μM)” value came to 85%.
